Source: doi:10.1101/773804
Results are given in words; binding and its absence hold for the method and conditions named. In cells and extracts the contact can be indirect. Some entries that bind do so weakly or less than the wild type. Where a sequence is shown, tags or fusion partners need not be part of it.

T1: myc-tagged CLN6 (human (cDNA from HeLa and HEK293-T RNA)) (UniProt Q9NWW5)
T1 sequence: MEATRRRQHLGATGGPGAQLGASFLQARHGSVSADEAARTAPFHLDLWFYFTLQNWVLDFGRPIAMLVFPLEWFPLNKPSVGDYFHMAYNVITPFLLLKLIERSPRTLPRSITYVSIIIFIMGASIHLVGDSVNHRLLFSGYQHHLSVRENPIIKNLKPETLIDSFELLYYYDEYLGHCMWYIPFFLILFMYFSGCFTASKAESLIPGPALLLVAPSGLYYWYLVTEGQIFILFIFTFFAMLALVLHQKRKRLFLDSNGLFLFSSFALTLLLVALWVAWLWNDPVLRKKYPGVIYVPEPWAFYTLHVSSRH


Molecular target: T1, myc-tagged CLN6 (human (cDNA from HeLa and HEK293-T RNA))
Assay: co-IP

binding | Binder
no binding | lipase maturation factor 1 (LMF1) (protein, UniProt Q96S06 1-567) MRPDSPTMAAPAESLRRRKTGYSDPEPESPPAPGRGPAGSPAHLHTGTFWLTRIVLLKALAFVYFVAFLVAFHQNKQLIGDRGLLPCRVFLKNFQQYFQDRTSWEVFSYMPTILWLMDWSDMNSNLDLLALLGLGISSFVLITGCANMLLMAALWGLYMSLVNVGHVWYSFGWESQLLETGFLGIFLCPLWTLSRLPQHTPTSRIVLWGFRWLIFRIMLGAGLIKIRGDRCWRDLTCMDFHYETQPMPNPVAYYLHHSPWWFHRFETLSNHFIELLVPFFLFLGRRACIIHGVLQILFQAVLIVSGNLSFLNWLTMVPSLACFDDATLGFLFPSGPGSLKDRVLQMQRDIRGARPEPRFGSVVRRAANVSLGVLLAWLSVPVVLNLLSSRQVMNTHFNSLHIVNTYGAFGSITKERAEVILQGTASSNASAPDAMWEDYEFKCKPGDPSRRPCLISPYHYRLDWLMWFAAFQTYEHNDWIIHLAGKLLASDAEALSLLAHNPFAGRPPPRWVRGEHYRYKFSRPGGRHAAEGKWWVRKRIGAYFPPLSLEELRPYFRDRGWPLPGPL
binds | myc-tagged CLN6 (protein, UniProt Q9NWW5 1-311) MEATRRRQHLGATGGPGAQLGASFLQARHGSVSADEAARTAPFHLDLWFYFTLQNWVLDFGRPIAMLVFPLEWFPLNKPSVGDYFHMAYNVITPFLLLKLIERSPRTLPRSITYVSIIIFIMGASIHLVGDSVNHRLLFSGYQHHLSVRENPIIKNLKPETLIDSFELLYYYDEYLGHCMWYIPFFLILFMYFSGCFTASKAESLIPGPALLLVAPSGLYYWYLVTEGQIFILFIFTFFAMLALVLHQKRKRLFLDSNGLFLFSSFALTLLLVALWVAWLWNDPVLRKKYPGVIYVPEPWAFYTLHVSSRH
